From the supplement of paper PMC10849652
Some of the results follow.

Sequences of proteins named here, by UniProt entry; tags and fusion partners are left off. A change or cut given only in a name is not applied to a line headed by its entry.
UniProt O14521: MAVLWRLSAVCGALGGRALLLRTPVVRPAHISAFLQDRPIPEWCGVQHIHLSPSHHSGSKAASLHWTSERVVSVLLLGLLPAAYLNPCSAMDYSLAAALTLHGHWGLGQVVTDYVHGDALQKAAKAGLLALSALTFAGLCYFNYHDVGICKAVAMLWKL
UniProt Q9Y265, whole entry, looked up: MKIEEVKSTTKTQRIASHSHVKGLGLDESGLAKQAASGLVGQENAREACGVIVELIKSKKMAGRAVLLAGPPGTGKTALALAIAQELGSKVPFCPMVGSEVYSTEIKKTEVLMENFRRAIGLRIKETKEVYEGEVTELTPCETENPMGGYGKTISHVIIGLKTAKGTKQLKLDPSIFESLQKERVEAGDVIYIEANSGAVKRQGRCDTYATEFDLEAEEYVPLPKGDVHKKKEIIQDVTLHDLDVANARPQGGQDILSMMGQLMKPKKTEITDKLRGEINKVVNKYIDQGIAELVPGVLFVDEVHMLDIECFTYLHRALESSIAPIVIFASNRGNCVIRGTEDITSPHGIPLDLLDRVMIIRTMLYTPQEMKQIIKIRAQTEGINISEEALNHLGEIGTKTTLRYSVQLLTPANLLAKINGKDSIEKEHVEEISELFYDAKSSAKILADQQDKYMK
UniProt P31040: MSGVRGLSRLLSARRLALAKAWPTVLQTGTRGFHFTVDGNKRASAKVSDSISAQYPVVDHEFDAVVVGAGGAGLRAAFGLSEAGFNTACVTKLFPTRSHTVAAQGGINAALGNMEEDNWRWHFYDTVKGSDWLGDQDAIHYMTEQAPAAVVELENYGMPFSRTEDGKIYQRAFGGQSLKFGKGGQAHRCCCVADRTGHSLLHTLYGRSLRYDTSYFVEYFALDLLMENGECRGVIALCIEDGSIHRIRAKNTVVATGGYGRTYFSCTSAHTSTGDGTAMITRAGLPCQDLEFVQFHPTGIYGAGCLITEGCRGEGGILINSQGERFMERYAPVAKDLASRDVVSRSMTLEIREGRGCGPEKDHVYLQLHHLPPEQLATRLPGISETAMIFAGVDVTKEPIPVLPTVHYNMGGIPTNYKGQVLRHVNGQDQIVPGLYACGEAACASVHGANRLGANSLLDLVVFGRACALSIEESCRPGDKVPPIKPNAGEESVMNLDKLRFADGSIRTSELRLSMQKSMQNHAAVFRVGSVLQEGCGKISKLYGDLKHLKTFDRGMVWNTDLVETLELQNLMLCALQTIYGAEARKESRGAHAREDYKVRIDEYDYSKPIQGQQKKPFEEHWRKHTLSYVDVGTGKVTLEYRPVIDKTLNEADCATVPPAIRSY
UniProt Q96T51: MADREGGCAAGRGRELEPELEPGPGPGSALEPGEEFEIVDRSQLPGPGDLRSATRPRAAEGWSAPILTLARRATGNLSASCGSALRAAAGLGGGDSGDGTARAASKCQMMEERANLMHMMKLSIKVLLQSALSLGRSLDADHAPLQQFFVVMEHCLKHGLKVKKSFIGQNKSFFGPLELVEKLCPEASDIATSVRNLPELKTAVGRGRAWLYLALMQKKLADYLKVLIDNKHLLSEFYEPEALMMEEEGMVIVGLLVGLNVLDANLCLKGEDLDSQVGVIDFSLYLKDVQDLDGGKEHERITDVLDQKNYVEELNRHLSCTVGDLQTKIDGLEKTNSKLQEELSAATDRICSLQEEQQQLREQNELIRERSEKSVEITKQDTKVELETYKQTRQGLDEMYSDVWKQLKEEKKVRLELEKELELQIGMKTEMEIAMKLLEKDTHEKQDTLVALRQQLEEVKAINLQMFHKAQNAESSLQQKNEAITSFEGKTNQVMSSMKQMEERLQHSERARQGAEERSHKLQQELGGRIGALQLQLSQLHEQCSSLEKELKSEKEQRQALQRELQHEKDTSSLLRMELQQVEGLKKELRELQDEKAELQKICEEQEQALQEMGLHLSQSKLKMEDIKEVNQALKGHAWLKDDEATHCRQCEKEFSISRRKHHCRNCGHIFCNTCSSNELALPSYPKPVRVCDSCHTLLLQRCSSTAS
UniProt Q15404: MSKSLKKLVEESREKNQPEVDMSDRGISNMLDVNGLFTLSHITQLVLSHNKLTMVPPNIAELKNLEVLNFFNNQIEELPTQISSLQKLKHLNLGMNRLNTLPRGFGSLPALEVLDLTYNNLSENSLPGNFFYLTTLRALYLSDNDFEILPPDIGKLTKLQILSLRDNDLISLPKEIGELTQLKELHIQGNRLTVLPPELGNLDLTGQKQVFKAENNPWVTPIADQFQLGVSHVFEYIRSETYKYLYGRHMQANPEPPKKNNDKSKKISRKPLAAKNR
UniProt Q9Y230, whole entry, looked up: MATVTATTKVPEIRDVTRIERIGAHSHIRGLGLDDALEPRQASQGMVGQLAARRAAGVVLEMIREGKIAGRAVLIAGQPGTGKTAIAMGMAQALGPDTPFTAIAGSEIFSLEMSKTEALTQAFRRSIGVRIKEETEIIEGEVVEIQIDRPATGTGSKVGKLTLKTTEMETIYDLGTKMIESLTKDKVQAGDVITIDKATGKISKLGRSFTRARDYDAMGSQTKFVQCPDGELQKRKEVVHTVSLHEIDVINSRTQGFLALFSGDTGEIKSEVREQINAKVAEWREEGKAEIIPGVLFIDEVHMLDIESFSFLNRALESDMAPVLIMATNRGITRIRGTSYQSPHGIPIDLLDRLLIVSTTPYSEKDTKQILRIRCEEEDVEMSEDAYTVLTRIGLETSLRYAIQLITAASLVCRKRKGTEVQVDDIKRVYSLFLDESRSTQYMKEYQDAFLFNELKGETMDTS
UniProt P53992: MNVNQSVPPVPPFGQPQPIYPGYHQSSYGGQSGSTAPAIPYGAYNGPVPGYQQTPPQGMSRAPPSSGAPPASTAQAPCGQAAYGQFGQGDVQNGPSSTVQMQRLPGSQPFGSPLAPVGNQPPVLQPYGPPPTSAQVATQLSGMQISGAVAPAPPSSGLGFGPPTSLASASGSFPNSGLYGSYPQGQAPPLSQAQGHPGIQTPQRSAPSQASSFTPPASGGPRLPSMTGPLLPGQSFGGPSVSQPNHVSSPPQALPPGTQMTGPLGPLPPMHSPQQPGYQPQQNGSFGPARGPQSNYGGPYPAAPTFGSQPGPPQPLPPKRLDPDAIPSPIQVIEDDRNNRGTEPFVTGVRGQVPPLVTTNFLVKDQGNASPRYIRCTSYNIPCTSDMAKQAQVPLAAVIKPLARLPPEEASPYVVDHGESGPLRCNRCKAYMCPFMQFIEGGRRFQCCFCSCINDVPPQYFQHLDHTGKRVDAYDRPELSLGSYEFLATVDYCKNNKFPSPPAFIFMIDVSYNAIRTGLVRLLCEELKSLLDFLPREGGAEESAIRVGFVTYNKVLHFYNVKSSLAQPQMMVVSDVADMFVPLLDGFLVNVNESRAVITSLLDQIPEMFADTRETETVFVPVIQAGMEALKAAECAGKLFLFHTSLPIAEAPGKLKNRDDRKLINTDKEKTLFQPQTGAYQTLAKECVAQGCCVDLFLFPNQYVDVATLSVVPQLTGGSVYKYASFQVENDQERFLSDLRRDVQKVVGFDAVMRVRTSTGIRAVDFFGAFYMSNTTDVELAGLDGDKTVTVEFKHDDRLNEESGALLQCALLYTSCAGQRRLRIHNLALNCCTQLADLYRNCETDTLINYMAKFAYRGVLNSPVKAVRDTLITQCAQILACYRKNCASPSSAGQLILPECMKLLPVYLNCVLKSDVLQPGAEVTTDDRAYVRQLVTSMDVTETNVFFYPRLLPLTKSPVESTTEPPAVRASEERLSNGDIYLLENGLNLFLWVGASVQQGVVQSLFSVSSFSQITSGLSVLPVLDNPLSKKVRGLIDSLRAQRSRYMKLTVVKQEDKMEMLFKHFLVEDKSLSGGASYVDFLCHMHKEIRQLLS
UniProt Q5VWQ0: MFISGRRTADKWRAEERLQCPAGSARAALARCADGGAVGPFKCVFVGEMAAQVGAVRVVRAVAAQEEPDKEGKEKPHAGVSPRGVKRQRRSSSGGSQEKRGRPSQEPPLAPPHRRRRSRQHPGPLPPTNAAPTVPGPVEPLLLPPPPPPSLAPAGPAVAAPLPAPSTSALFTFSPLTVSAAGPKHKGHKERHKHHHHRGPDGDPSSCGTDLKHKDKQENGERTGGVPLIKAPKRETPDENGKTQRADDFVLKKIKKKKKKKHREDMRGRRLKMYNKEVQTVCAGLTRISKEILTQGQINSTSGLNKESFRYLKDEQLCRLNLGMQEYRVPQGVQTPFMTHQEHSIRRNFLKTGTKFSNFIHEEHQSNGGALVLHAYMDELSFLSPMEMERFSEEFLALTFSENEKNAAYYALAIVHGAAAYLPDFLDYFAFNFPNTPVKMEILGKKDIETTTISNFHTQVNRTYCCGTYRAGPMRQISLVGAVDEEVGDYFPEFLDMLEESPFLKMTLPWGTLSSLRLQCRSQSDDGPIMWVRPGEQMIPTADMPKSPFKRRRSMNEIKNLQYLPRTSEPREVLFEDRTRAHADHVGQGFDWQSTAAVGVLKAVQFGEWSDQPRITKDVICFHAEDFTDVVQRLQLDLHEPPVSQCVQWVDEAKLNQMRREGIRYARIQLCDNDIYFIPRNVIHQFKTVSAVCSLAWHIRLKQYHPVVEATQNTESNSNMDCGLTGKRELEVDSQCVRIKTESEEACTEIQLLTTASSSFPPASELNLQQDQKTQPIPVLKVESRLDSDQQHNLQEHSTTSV
UniProt Q6IQ49: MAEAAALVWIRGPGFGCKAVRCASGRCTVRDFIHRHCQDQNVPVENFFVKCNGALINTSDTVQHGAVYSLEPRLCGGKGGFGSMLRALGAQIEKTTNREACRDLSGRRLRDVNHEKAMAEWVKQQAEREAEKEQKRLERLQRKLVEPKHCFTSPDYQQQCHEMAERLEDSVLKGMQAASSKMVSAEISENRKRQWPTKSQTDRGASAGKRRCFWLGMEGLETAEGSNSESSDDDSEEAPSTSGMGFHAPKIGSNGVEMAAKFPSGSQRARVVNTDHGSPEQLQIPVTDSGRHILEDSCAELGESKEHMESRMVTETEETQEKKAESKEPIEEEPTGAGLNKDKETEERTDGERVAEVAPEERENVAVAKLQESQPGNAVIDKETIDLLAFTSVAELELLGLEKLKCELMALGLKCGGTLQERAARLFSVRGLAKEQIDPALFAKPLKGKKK
UniProt Q15424: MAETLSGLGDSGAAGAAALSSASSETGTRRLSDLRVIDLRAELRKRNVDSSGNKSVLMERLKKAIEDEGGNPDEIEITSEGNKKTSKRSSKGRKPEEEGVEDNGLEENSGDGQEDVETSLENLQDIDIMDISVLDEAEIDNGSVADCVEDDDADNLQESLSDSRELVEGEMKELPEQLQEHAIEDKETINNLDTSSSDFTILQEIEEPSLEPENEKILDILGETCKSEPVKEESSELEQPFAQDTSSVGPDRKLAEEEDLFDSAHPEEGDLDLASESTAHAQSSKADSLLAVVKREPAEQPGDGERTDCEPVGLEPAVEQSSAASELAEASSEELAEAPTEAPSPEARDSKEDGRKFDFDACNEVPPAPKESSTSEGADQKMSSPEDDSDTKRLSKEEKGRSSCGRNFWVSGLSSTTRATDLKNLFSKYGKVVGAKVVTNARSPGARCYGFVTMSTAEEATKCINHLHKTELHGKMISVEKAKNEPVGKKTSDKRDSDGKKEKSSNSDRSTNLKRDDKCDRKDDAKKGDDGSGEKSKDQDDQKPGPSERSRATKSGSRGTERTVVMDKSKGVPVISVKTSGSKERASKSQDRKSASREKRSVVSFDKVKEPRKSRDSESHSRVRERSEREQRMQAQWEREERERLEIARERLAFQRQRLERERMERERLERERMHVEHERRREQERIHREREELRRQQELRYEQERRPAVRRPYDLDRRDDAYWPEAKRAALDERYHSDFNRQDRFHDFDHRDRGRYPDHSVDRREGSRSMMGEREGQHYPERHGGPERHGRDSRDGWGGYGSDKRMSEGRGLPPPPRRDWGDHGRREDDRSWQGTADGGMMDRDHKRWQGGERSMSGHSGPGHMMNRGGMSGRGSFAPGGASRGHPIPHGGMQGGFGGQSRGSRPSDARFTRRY
UniProt O75396: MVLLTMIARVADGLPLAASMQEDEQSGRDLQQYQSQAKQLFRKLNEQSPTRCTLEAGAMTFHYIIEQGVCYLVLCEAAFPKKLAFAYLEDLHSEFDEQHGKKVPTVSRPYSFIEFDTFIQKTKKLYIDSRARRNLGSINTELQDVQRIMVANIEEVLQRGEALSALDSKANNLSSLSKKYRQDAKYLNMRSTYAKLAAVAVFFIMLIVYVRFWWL
UniProt Q96IZ7: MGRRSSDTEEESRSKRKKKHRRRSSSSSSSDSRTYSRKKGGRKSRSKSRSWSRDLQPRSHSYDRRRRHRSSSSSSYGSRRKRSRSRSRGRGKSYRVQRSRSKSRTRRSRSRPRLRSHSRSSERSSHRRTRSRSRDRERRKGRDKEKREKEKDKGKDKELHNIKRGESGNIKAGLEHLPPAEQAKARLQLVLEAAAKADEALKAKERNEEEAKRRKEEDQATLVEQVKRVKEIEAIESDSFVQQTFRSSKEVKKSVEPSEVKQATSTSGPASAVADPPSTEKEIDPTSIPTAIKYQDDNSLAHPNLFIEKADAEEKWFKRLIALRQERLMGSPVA

Tests used:
Assay in all cases: log2 fold change, soluble protein after heating vs DMSO (PISA); higher = thermal stabilisation; K562 cells, 10 uM, 30 min; active = over 0.2 and 3.5 SD of the protein, either way, in both replicates (recomputed)
erlotinib = compound: C#Cc1cccc(Nc2ncnc3cc(OCCOC)c(OCCOC)cc23)c1 [erlotinib]
How it was run: (§1)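 Values are thermal stability changes relative to control samples and are taken from duplicates. They are stated as log2 fold changes. Before quantification by TMTpro 16plex LC-MS/MS with equalised channel sums, K562 cells at 2×10^6 cells/mL were treated with 10 μM compound for 30 min, heated in aliquots for 3 min across 48°C-58°C, pooled, extracted in PBS with 0.5% NP-40 at 4°C, and centrifuged at 21,000xg for 90 min to give the soluble supernatant.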

[1] = compound: C/C(=N\NC(=O)C1=CC(=CC=C1)S(=O)(=O)N2CCOCC2)/C3=C(C=CC(=C3)Cl)O
How it was run: as §1

[2] = compound: C1=CC(=C(C=C1Cl)C2=NC3=NC=CN=C3C(=N2)NC4=CC=NC=C4)F
How it was run: as §1

[3] = compound: C1=CC(=CC=C1C2=NC3=C(N2)C=C(C=C3)C(=O)N)OC4=CC=C(C=C4)Cl
How it was run: as §1

[4] = compound: C1=CC2=C(C=CC(=C2)/C=C\3/C(=O)NC(=NCC4=CC=CS4)S3)N=C1
How it was run: as §1

[5] = compound: C1=CC2=NC=CN=C2C=C1/C=C/3\C(=O)NC(=O)S3
How it was run: as §1

[6] = compound: C1=CC=C(C=C1)C2=NC(=C(N2)C3=CC=NC=C3)C4=CC(=C(C=C4)Cl)O
How it was run: as §1

[7] = compound: C1=CC=C2C(=C1)C3=NNC4=CC=CC(=C43)C2=O
How it was run: as §1

[8] = compound: C1CCN(C1)C(=O)NC2=CC=CC(=C2)NC3=NC=C(C(=N3)NCCC4=CN=CN4)Br
How it was run: as §1

[9] = compound: C1CN(CCC1(CC2=CC=C(C=C2)Cl)N)C3=NC=NC4=C3C=CN4
How it was run: as §1

Measured: log2 fold change

SDHB, A0A087WWT1
inactive: erlotinib 0.04 | [1] -0.069 | [2] 0.019 | [3] -0.096 | [4] 0.257 | [5] 0.134 | [6] -0.251 | [7] -0.03

SAP18 isoform 2 (UniProt O00422)
inactive: erlotinib -0.173 | [1] -0.131 | [2] -0.159 | [3] 0.104 | [4] -0.005 | [5] 0.098 | [6] -0.121 | [7] -0.059 | [8] -0.059 | [9] -0.105

RSL1D1 (UniProt O76021)
inactive: erlotinib -0.115 | [1] -0.156 | [2] -0.504 | [3] 0.073 | [4] -0.054 | [5] 0.057 | [6] -0.141 | [7] -0.086 | [8] 0.016 | [9] -0.193

SDHD (UniProt O14521)
inactive: erlotinib -0.107 | [1] 0.006 | [2] 0.149 | [3] 0.337 | [4] -0.049 | [5] 0.099 | [6] 0.103 | [7] 0.105 | [8] -0.013 | [9] -0.026

SCAF8 isoform 2 (UniProt Q9UPN6)
inactive: erlotinib 0.203 | [1] 0.051 | [2] 0.048 | [3] 0.034 | [4] 0.124 | [5] -0.028 | [6] 0.298 | [7] 0.069 | [8] -0.031 | [9] -0.036

RUVBL1 (UniProt Q9Y265)
inactive: erlotinib -0.007 | [1] -0.013 | [2] 0.03 | [3] 0.013 | [4] -0.007 | [5] 0.039 | [6] -0.038 | [7] -0.005 | [8] 0.02 | [9] 0.02

SDHA (UniProt P31040)
inactive: erlotinib 0.001 | [1] 0.009 | [2] 0.052 | [3] -0.002 | [4] -0.039 | [5] 0.018 | [6] 0.014 | [7] -0.004 | [8] 0.016 | [9] 0.042

RSF1 (UniProt Q96T23)
inactive: erlotinib 0.034 | [1] 0.152 | [2] 0.031 | [3] 0.126 | [4] 0.039 | [5] 0.012 | [6] 0.089 | [7] -0.057 | [8] 0.01 | [9] 0.006

SAMM50 (UniProt Q9Y512)
inactive: erlotinib 0 | [1] 0.009 | [2] 0.038 | [3] 0.003 | [4] -0.033 | [5] 0.026 | [6] 0.005 | [7] -0.026 | [8] 0.031 | [9] 0.062

SCRN3 (UniProt Q0VDG4)
inactive: erlotinib -0.029 | [1] 0.022 | [2] 0.064 | [3] 0.067 | [4] -0.027 | [5] 0.026 | [6] -0.02 | [7] 0.067 | [8] -0.024 | [9] 0.012

SCRN2 (UniProt Q96FV2)
inactive: erlotinib 0.086 | [1] -0.014 | [2] 0.036 | [3] 0.091 | [4] -0.039 | [5] -0.02 | [6] -0.121 | [7] 0.101 | [8] -0.029 | [9] 0.001

RYBP (UniProt Q8N488)
inactive: erlotinib 0.086 | [1] -0.079 | [2] 0.004 | [3] -0.045 | [4] -0.023 | [5] 0 | [6] -0.033 | [7] -0.087 | [8] 0.017 | [9] 0.035

RTCB (UniProt Q9Y3I0)
inactive: erlotinib 0.014 | [1] -0.041 | [2] -0.021 | [3] 0.012 | [4] -0.014 | [5] -0.008 | [6] 0.032 | [7] -0.006 | [8] 0.012 | [9] -0.014

SAAL1 (UniProt Q96ER3)
inactive: erlotinib -0.044 | [1] 0.028 | [2] 0.046 | [3] 0.022 | [4] -0.033 | [5] 0.125 | [6] -0.041 | [7] -0.007 | [8] 0.042 | [9] -0.03

SCAMP2 (UniProt O15127)
inactive: erlotinib 0.014 | [1] 0.141 | [2] 0.081 | [3] 0.011 | [4] -0.154 | [5] 0.063 | [6] 0.055 | [7] 0.057 | [8] -0.116 | [9] 0.087

SCNM1 (UniProt Q9BWG6)
inactive: erlotinib 0.043 | [1] -0.13 | [2] -0.003 | [3] -0.027 | [4] -0.098 | [5] 0.12 | [6] 0.154 | [7] 0 | [8] 0.046 | [9] 0.024

RUFY1 (UniProt Q96T51)
inactive: erlotinib 0.01 | [1] 0.094 | [2] -0.046 | [3] -0.018 | [4] 0.022 | [5] 0.034 | [6] -0.027 | [7] 0 | [8] 0.031 | [9] -0.084

RSU1 (UniProt Q15404)
inactive: erlotinib 0.013 | [1] -0.017 | [2] 0.006 | [3] 0.007 | [4] 0.017 | [5] 0.024 | [6] -0.019 | [7] -0.005 | [8] 0.011 | [9] 0.014

RUVBL2 (UniProt Q9Y230)
inactive: erlotinib 0 | [1] 0 | [2] 0.038 | [3] 0.007 | [4] -0.03 | [5] 0.024 | [6] 0.002 | [7] -0.011 | [8] -0.021 | [9] 0.065

SEC24C (UniProt P53992)
inactive: erlotinib -0.021 | [1] 0.087 | [2] 0.064 | [3] 0.016 | [4] 0.035 | [5] 0.033 | [6] 0.043 | [7] 0.016 | [8] -0.011 | [9] -0.01

SEC23IP (UniProt Q9Y6Y8)
inactive: erlotinib 0.03 | [1] 0.022 | [2] -0.013 | [3] -0.037 | [4] 0.028 | [5] 0.229 | [6] -0.023 | [7] -0.027 | [8] -0.008 | [9] -0.061

RSBN1 (UniProt Q5VWQ0)
inactive: erlotinib -0.098 | [1] -0.145 | [2] -0.392 | [3] -0.064 | [4] -0.068 | [5] 0.139 | [6] -0.154 | [7] -0.067 | [8] -0.001 | [9] -0.1

S100A11 (UniProt P31949)
inactive: erlotinib -0.021 | [1] -0.006 | [2] 0.216 | [3] 0.024 | [4] 0.105 | [5] 0.047 | [6] 0.087 | [7] 0.002 | [8] -0.031 | [9] 0.038

S100A13 (UniProt Q99584)
inactive: erlotinib 0.041 | [1] 0.012 | [2] 0.023 | [3] -0.023 | [4] 0.012 | [5] 0.028 | [6] 0.002 | [7] -0.002 | [8] 0.038 | [9] -0.007

SDE2 (UniProt Q6IQ49)
inactive: erlotinib -0.033 | [1] -0.016 | [2] -0.064 | [3] 0.019 | [4] -0.028 | [5] 0.001 | [6] -0.037 | [7] -0.038 | [8] -0.001 | [9] 0.002

Eight neighbouring entries already listed, for reference:
RSU1 (UniProt Q15404)
inactive: erlotinib 0.013 | [1] -0.017 | [2] 0.006 | [3] 0.007 | [4] 0.017 | [5] 0.024 | [6] -0.019 | [7] -0.005 | [8] 0.011 | [9] 0.014

RUVBL2 (UniProt Q9Y230)
inactive: erlotinib 0 | [1] 0 | [2] 0.038 | [3] 0.007 | [4] -0.03 | [5] 0.024 | [6] 0.002 | [7] -0.011 | [8] -0.021 | [9] 0.065

SEC24C (UniProt P53992)
inactive: erlotinib -0.021 | [1] 0.087 | [2] 0.064 | [3] 0.016 | [4] 0.035 | [5] 0.033 | [6] 0.043 | [7] 0.016 | [8] -0.011 | [9] -0.01

SEC23IP (UniProt Q9Y6Y8)
inactive: erlotinib 0.03 | [1] 0.022 | [2] -0.013 | [3] -0.037 | [4] 0.028 | [5] 0.229 | [6] -0.023 | [7] -0.027 | [8] -0.008 | [9] -0.061

RSBN1 (UniProt Q5VWQ0)
inactive: erlotinib -0.098 | [1] -0.145 | [2] -0.392 | [3] -0.064 | [4] -0.068 | [5] 0.139 | [6] -0.154 | [7] -0.067 | [8] -0.001 | [9] -0.1

S100A11 (UniProt P31949)
inactive: erlotinib -0.021 | [1] -0.006 | [2] 0.216 | [3] 0.024 | [4] 0.105 | [5] 0.047 | [6] 0.087 | [7] 0.002 | [8] -0.031 | [9] 0.038

S100A13 (UniProt Q99584)
inactive: erlotinib 0.041 | [1] 0.012 | [2] 0.023 | [3] -0.023 | [4] 0.012 | [5] 0.028 | [6] 0.002 | [7] -0.002 | [8] 0.038 | [9] -0.007

SDE2 (UniProt Q6IQ49)
inactive: erlotinib -0.033 | [1] -0.016 | [2] -0.064 | [3] 0.019 | [4] -0.028 | [5] 0.001 | [6] -0.037 | [7] -0.038 | [8] -0.001 | [9] 0.002

Further results

SAFB isoform 3 (UniProt Q15424)
inactive: erlotinib -0.034 | [1] -0.144 | [2] -0.197 | [3] 0.038 | [4] -0.134 | [5] 0.044 | [6] -0.144 | [7] -0.033 | [8] 0.017 | [9] -0.173

SAMHD1 (UniProt Q9Y3Z3)
inactive: erlotinib 0.052 | [1] -0.009 | [2] 0.026 | [3] 0 | [4] 0.029 | [5] 0.013 | [6] -0.017 | [7] 0.022 | [8] -0.017 | [9] 0.087

SEC22B (UniProt O75396)
inactive: erlotinib -0.032 | [1] 0.059 | [2] 0.027 | [3] -0.034 | [4] -0.023 | [5] 0.015 | [6] 0.044 | [7] 0.076 | [8] -0.038 | [9] 0.005

SCAMP4 (UniProt Q969E2)
inactive: erlotinib 0.002 | [1] -0.028 | [2] 0.01 | [3] 0.018 | [4] 0.024 | [5] 0.017 | [6] 0.008 | [7] -0.089 | [8] 0.019 | [9] 0.142

RSRC1 (UniProt Q96IZ7)
inactive: erlotinib 0 | [1] 0.135 | [2] -0.148 | [3] 0.071 | [4] -0.033 | [5] -0.057 | [6] -0.026 | [7] -0.073 | [8] 0.016 | [9] -0.1
